From US20250188184A1 come the findings set out here.

By UniProt entry, the sequences of proteins in these tests, tags left out. Residues count along the entry.
UniProt Q04609, residues 44-750: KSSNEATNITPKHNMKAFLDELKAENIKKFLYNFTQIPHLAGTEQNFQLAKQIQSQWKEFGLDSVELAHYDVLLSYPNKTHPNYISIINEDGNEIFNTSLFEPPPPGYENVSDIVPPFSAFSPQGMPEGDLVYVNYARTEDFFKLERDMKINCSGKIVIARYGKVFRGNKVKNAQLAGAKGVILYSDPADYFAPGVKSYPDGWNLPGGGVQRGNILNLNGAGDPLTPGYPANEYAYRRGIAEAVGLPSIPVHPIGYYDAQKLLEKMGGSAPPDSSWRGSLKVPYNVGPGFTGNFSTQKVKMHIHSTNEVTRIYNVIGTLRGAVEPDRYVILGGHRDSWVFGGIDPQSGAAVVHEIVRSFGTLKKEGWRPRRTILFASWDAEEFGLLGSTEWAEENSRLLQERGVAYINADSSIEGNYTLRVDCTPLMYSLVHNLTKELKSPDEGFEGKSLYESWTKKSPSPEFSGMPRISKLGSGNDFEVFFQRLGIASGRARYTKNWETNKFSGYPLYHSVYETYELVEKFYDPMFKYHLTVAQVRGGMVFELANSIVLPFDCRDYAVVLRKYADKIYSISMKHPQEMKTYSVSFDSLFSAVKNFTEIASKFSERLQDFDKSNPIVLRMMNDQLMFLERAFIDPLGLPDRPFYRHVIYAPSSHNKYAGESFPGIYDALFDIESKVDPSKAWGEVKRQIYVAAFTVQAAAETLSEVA

Changes are numbered by the printed parent chain. Results are given in words; binding and its absence hold for the method and conditions named. Some entries that bind do so weakly or less than the wild type.

The target in the test is human PSMA (human) (UniProt Q04609). The experiment in a line: uTCE with CD3.23.

B1: uTCE of AC2717 (PSMA.5, VHH3, with CD3.23) (bispecific antibody, V domains shown)
VHH: QVQLVESGGGVVQPGRSLRLSCAASGRTFGIYVMGWVRQAPGKEREFVAAISWSGSNRLVSDSVKGRFTISRDNSKNTLYLQMNSLRAEDTAVYYCAASNRLYGRTWYDFNESDYWGQGTQVTVSS
VL: ELVVTQEPSLTVSPGGTVTLTCRSSNGAVTSSNYANWVQQKPGQAPRGLIGGTNKRAPGTPARFSGSLLGGKAALTLSGVQPEDEAVYYCALWYPNLWVFGGGTKLTVL
VH: EVQLLESGGGIVQPGGSLKLSCAASGFTFNTYAMNWVRQAPGKGLEWVARIRSKYNNYATYYADSVKDRFTISRDDSKNTVYLQMNNLKTEDTAVYYCVRHENFGNSYVSWFAHWGQGTLVTVSS
Take B1: the binding entry is recorded as “binds”.

B2: uTCE of AC2728 (PSMA.6, VHH14, with CD3.23) (bispecific antibody, V domains shown)
VH: B1 VHH with Q1E, Y95F, Q121T
In the case of B2, the binding entry was “binds”.
